## Results from one PubChem assay

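Malaria parasite (P. falciparum) lines kept in red blood cells; parasite DNA is measured by SYBR Green fluorescence after lysis, 72 h after compound addition.
Each compound was titrated across a series from about 0.000037 to 29 µM.
The number is the fitted AC50, the concentration giving a half-maximal change in signal; a lower value means higher potency, whether the curve shows a decrease or an increase.
Calls follow the curve class and fit quality: every row here is inconclusive, covering signal-raising curves and weak, poorly fitted, partial or highest-dose-only inhibition curves.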

Values are in nM.
All entries here are filed as inconclusive.
These entries are mostly ones the record files as inconclusive; other results of the assay are not listed here.
Potencies fitted to partial, single-point or poorly fitting curves are rough.

| # | structure | tested on / at | fitted potency (nM) | remark |
|---|---|---|---|---|
| 1 | `CSc1ccc2c(c1)N(CCC1CCCCN1C)c1ccccc1S2` (configuration not stated) | CP297 | 13459 | inhibitor, single point |
| 2 | `CSc1ccc2c(c1)N(CCC1CCCCN1C)c1ccccc1S2` (configuration not stated) | CP250 | 10000 | inhibitor, single point |
| 3 | `CSc1ccc2c(c1)N(CCC1CCCCN1C)c1ccccc1S2` (configuration not stated) | CP291 | 16944 | inhibitor, partial curve |
| 4 | `CSc1ccc2c(c1)N(CCC1CCCCN1C)c1ccccc1S2` (configuration not stated) | 3D7 | 17782 | inhibitor, single point |
| 5 | `CSc1ccc2c(c1)N(CCC1CCCCN1C)c1ccccc1S2` (configuration not stated) | CP215 | 16944 | inhibitor, single point |
| 6 | `CSc1ccc2c(c1)N(CCC1CCCCN1C)c1ccccc1S2` (configuration not stated) | CP325 | 19011 | inhibitor, single point |
| 7 | `CSc1ccc2c(c1)N(CCC1CCCCN1C)c1ccccc1S2` (configuration not stated) | CP305 | 21331 | inhibitor, partial curve, poor fit |
| 8 | `CSc1ccc2c(c1)N(CCC1CCCCN1C)c1ccccc1S2` (configuration not stated) | PC49 | 12589 | inhibitor, partial curve |
| 9 | `CSc1ccc2c(c1)N(CCC1CCCCN1C)c1ccccc1S2` (configuration not stated) | PC26 | 11995 | inhibitor, partial curve |
| 10 | `CSc1ccc2c(c1)N(CCC1CCCCN1C)c1ccccc1S2` (configuration not stated) | CP192 | 19011 | inhibitor, single point |
| 11 | `CSc1ccc2c(c1)N(CCC1CCCCN1C)c1ccccc1S2` (configuration not stated) | CP238 | 10000 | inhibitor, single point |
| 12 | `CSc1ccc2c(c1)N(CCC1CCCCN1C)c1ccccc1S2` (configuration not stated) | CP329 | 19011 | inhibitor, single point |
| 13 | `CSc1ccc2c(c1)N(CCC1CCCCN1C)c1ccccc1S2` (configuration not stated) | CP247 | 10000 | inhibitor, single point |
| 14 | `CSc1ccc2c(c1)N(CCC1CCCCN1C)c1ccccc1S2` (configuration not stated) | ATS189 | 11220 | inhibitor, single point |
| 15 | `N#CC(C#N)=Cc1ccc(O)c(O)c1` | GB4 | 8492 | inhibitor, partial curve |
| 16 | `N#CC(C#N)=Cc1ccc(O)c(O)c1` | CP215 | 16944 | inhibitor, partial curve, poor fit |
| 17 | `N#CC(C#N)=Cc1ccc(O)c(O)c1` | DIV17 | 11995 | inhibitor, partial curve, poor fit |
| 18 | `N#CC(C#N)=Cc1ccc(O)c(O)c1` | CP297 | 3381 | inhibitor, partial curve |
| 19 | `N#CC(C#N)=Cc1ccc(O)c(O)c1` | CP191 | 17782 | inhibitor, single point |
| 20 | `N#CC(C#N)=Cc1ccc(O)c(O)c1` | CP335 | 19011 | inhibitor, single point |
| 21 | `N#CC(C#N)=Cc1ccc(O)c(O)c1` | CP256 | 17782 | inhibitor, single point |
| 22 | `N#CC(C#N)=Cc1ccc(O)c(O)c1` | CP250 | 17782 | inhibitor, single point |
| 23 | `COC(=O)C1[C@@H](OC)C(OC(=O)COc2ccc(OC)cc2)C[C@@H]2CN3CCc4c([nH]c5cc(OC)ccc45)[C@H]3C[C@H]12` (some centres not stated) | SC27B | 10000 | inhibitor, single point |
| 24 | `COC(=O)C1[C@@H](OC)C(OC(=O)COc2ccc(OC)cc2)C[C@@H]2CN3CCc4c([nH]c5cc(OC)ccc45)[C@H]3C[C@H]12` (some centres not stated) | TAB109 | 11220 | inhibitor, single point |
| 25 | `COC(=O)C1[C@@H](OC)C(OC(=O)COc2ccc(OC)cc2)C[C@@H]2CN3CCc4c([nH]c5cc(OC)ccc45)[C@H]3C[C@H]12` (some centres not stated) | CP250 | 8912 | inhibitor, single point |
| 26 | `COC(=O)C1[C@@H](OC)C(OC(=O)COc2ccc(OC)cc2)C[C@@H]2CN3CCc4c([nH]c5cc(OC)ccc45)[C@H]3C[C@H]12` (some centres not stated) | CP305 | 19011 | inhibitor, single point |
| 27 | `COC(=O)C1[C@@H](OC)C(OC(=O)COc2ccc(OC)cc2)C[C@@H]2CN3CCc4c([nH]c5cc(OC)ccc45)[C@H]3C[C@H]12` (some centres not stated) | CP237 | 11220 | inhibitor, single point |
| 28 | `COC(=O)C1[C@@H](OC)C(OC(=O)COc2ccc(OC)cc2)C[C@@H]2CN3CCc4c([nH]c5cc(OC)ccc45)[C@H]3C[C@H]12` (some centres not stated) | PC15 | 12589 | inhibitor, single point |
| 29 | `COC(=O)C1[C@@H](OC)C(OC(=O)COc2ccc(OC)cc2)C[C@@H]2CN3CCc4c([nH]c5cc(OC)ccc45)[C@H]3C[C@H]12` (some centres not stated) | GB4 | 13459 | inhibitor, single point |
| 30 | `COC(=O)C1[C@@H](OC)C(OC(=O)COc2ccc(OC)cc2)C[C@@H]2CN3CCc4c([nH]c5cc(OC)ccc45)[C@H]3C[C@H]12` (some centres not stated) | TAB113 | 11220 | inhibitor, single point |
| 31 | `COC(=O)C1[C@@H](OC)C(OC(=O)COc2ccc(OC)cc2)C[C@@H]2CN3CCc4c([nH]c5cc(OC)ccc45)[C@H]3C[C@H]12` (some centres not stated) | ECU | 10000 | inhibitor, single point |
| 32 | `COC(=O)C1[C@@H](OC)C(OC(=O)COc2ccc(OC)cc2)C[C@@H]2CN3CCc4c([nH]c5cc(OC)ccc45)[C@H]3C[C@H]12` (some centres not stated) | CP291 | 13459 | inhibitor, single point |
| 33 | `COC(=O)C1[C@@H](OC)C(OC(=O)COc2ccc(OC)cc2)C[C@@H]2CN3CCc4c([nH]c5cc(OC)ccc45)[C@H]3C[C@H]12` (some centres not stated) | FAB9 | 17782 | inhibitor, single point |
| 34 | `COC(=O)C1[C@@H](OC)C(OC(=O)COc2ccc(OC)cc2)C[C@@H]2CN3CCc4c([nH]c5cc(OC)ccc45)[C@H]3C[C@H]12` (some centres not stated) | CP260 | 10000 | inhibitor, single point |
| 35 | `COC(=O)C1[C@@H](OC)C(OC(=O)COc2ccc(OC)cc2)C[C@@H]2CN3CCc4c([nH]c5cc(OC)ccc45)[C@H]3C[C@H]12` (some centres not stated) | CP269 | 15101 | inhibitor, single point |
| 36 | `COC(=O)C1[C@@H](OC)C(OC(=O)COc2ccc(OC)cc2)C[C@@H]2CN3CCc4c([nH]c5cc(OC)ccc45)[C@H]3C[C@H]12` (some centres not stated) | DFO2036 | 17782 | inhibitor, single point |
| 37 | `COC(=O)C1[C@@H](OC)C(OC(=O)COc2ccc(OC)cc2)C[C@@H]2CN3CCc4c([nH]c5cc(OC)ccc45)[C@H]3C[C@H]12` (some centres not stated) | CP238 | 12589 | inhibitor, single point |
| 38 | `COC(=O)C1[C@@H](OC)C(OC(=O)COc2ccc(OC)cc2)C[C@@H]2CN3CCc4c([nH]c5cc(OC)ccc45)[C@H]3C[C@H]12` (some centres not stated) | P94_40 | 12589 | inhibitor, single point |
| 39 | `COC(=O)C1[C@@H](OC)C(OC(=O)COc2ccc(OC)cc2)C[C@@H]2CN3CCc4c([nH]c5cc(OC)ccc45)[C@H]3C[C@H]12` (some centres not stated) | PC26 | 11995 | inhibitor, partial curve |
| 40 | `COC(=O)C1[C@@H](OC)C(OC(=O)COc2ccc(OC)cc2)C[C@@H]2CN3CCc4c([nH]c5cc(OC)ccc45)[C@H]3C[C@H]12` (some centres not stated) | CP252 | 11220 | inhibitor, single point |
| 41 | `COC(=O)C1[C@@H](OC)C(OC(=O)COc2ccc(OC)cc2)C[C@@H]2CN3CCc4c([nH]c5cc(OC)ccc45)[C@H]3C[C@H]12` (some centres not stated) | CP265 | 11220 | inhibitor, single point |
| 42 | `COC(=O)C1[C@@H](OC)C(OC(=O)COc2ccc(OC)cc2)C[C@@H]2CN3CCc4c([nH]c5cc(OC)ccc45)[C@H]3C[C@H]12` (some centres not stated) | CP329 | 21331 | inhibitor, single point |
| 43 | `COC(=O)C1[C@@H](OC)C(OC(=O)COc2ccc(OC)cc2)C[C@@H]2CN3CCc4c([nH]c5cc(OC)ccc45)[C@H]3C[C@H]12` (some centres not stated) | CP247 | 10000 | inhibitor, single point |
| 44 | `COC(=O)C1[C@@H](OC)C(OC(=O)COc2ccc(OC)cc2)C[C@@H]2CN3CCc4c([nH]c5cc(OC)ccc45)[C@H]3C[C@H]12` (some centres not stated) | C2A | 11220 | inhibitor, single point |
| 45 | `COC(=O)C1[C@@H](OC)C(OC(=O)COc2ccc(OC)cc2)C[C@@H]2CN3CCc4c([nH]c5cc(OC)ccc45)[C@H]3C[C@H]12` (some centres not stated) | CP191 | 11220 | inhibitor, single point |
| 46 | `COC(=O)C1[C@@H](OC)C(OC(=O)COc2ccc(OC)cc2)C[C@@H]2CN3CCc4c([nH]c5cc(OC)ccc45)[C@H]3C[C@H]12` (some centres not stated) | CP256 | 11220 | inhibitor, single point |
| 47 | `COC(=O)C1[C@@H](OC)C(OC(=O)COc2ccc(OC)cc2)C[C@@H]2CN3CCc4c([nH]c5cc(OC)ccc45)[C@H]3C[C@H]12` (some centres not stated) | CP194 | 19011 | inhibitor, partial curve, poor fit |
| 48 | `COC(=O)C1[C@@H](OC)C(OC(=O)COc2ccc(OC)cc2)C[C@@H]2CN3CCc4c([nH]c5cc(OC)ccc45)[C@H]3C[C@H]12` (some centres not stated) | ATS95 | 11220 | inhibitor, single point |
| 49 | `COC(=O)C1[C@@H](OC)C(OC(=O)COc2ccc(OC)cc2)C[C@@H]2CN3CCc4c([nH]c5cc(OC)ccc45)[C@H]3C[C@H]12` (some centres not stated) | CP185 | 17782 | inhibitor, single point |
| 50 | `COC(=O)C1[C@@H](OC)C(OC(=O)COc2ccc(OC)cc2)C[C@@H]2CN3CCc4c([nH]c5cc(OC)ccc45)[C@H]3C[C@H]12` (some centres not stated) | CP268 | 16944 | inhibitor, single point |

5 of the entries, repeated:

{"structure": "COC(=O)C1[C@@H](OC)C(OC(=O)COc2ccc(OC)cc2)C[C@@H]2CN3CCc4c([nH]c5cc(OC)ccc45)[C@H]3C[C@H]12", "stereo": "some centres not stated", "tested on / at": "CP256", "fitted potency (nM)": "11220", "remark": "inhibitor, single point"}
{"structure": "COC(=O)C1[C@@H](OC)C(OC(=O)COc2ccc(OC)cc2)C[C@@H]2CN3CCc4c([nH]c5cc(OC)ccc45)[C@H]3C[C@H]12", "stereo": "some centres not stated", "tested on / at": "CP268", "fitted potency (nM)": "16944", "remark": "inhibitor, single point"}
{"structure": "COC(=O)C1[C@@H](OC)C(OC(=O)COc2ccc(OC)cc2)C[C@@H]2CN3CCc4c([nH]c5cc(OC)ccc45)[C@H]3C[C@H]12", "stereo": "some centres not stated", "tested on / at": "TAB109", "fitted potency (nM)": "11220", "remark": "inhibitor, single point"}
{"structure": "CSc1ccc2c(c1)N(CCC1CCCCN1C)c1ccccc1S2", "stereo": "configuration not stated", "tested on / at": "CP329", "fitted potency (nM)": "19011", "remark": "inhibitor, single point"}
{"structure": "N#CC(C#N)=Cc1ccc(O)c(O)c1", "tested on / at": "CP256", "fitted potency (nM)": "17782", "remark": "inhibitor, single point"}

Data taken from PubChem BioAssay AID504749, deposited by NCATS (2011).